# Laboratory results as given in PMC4333382, “RNA helicase A activity is inhibited by oncogenic transcription factor EWS-FLI1” (Nucleic Acids Research, 2015).
# Test system: T1, EWS-FLI1 (in complex with RHA)
# T1 construct: gene EWSR1; assayed with full-length N-terminal His-tagged RHA from Sf9 cells; with ATP-dependent RNA helicase A
# Test: dsRNA strand-separation gel assay, reversal of EWS-FLI1 inhibition of RHA
# Type: biochemical, Homo sapiens
# Conditions: 1 nM RHA, 1 nM EWS-FLI1, 30 uM compound pre-incubated with EWS-FLI1 10 min; pH 7.5, 2 mM MgCl2, 2 mM nucleotide; binding site unknown
smiles,measurement,value
COc1ccc(C(=O)CC2(O)C(=O)Nc3c(Cl)ccc(Cl)c32)cc1 (racemic) [YK-4-279],% helicase activity restored at 30 uM,80%
COc1ccc(C(=O)C[C@@]2(O)C(=O)Nc3c(Cl)ccc(Cl)c32)cc1 [(S)-YK-4-279],% helicase activity restored at 30 uM,80%
